Source: the supplement of paper PMC4604168 (melanoma cell lines)
Some of the results follow. Many values rest on one well or one pass, so single values are uncertain.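 The apoptosis fraction was the count of cleaved-PARP antibody-stained nuclei relative to all DNA-stained nuclei, imaged in 1,536-well plates. Screening doses were set so most cells survived, and baseline and induced cleaved-PARP levels vary greatly across cell lines.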

What was measured:
Assay in all cases: cleaved PARP positive nuclei fraction relative to DMSO control; melanoma cells; higher = more apoptosis
Conditions in all cases: library dose: low library concentration; 72 h
501Mel = tested on: 501Mel
A101D = tested on: A101D
A2058 = tested on: A2058
A375 = tested on: A375
CBRC008 = tested on: CBRC008 (line from a melanoma biopsy)
CBRC014 = tested on: CBRC014 (line from a melanoma biopsy)
CBRC016 = tested on: CBRC016 (line from a melanoma biopsy)
CBRC017 = tested on: CBRC017 (line from a melanoma biopsy)
CBRC034 = tested on: CBRC034 (line from a melanoma biopsy)
COLO792 = tested on: COLO792
COLO800 = tested on: COLO800
COLO829 = tested on: COLO829
G361 = tested on: G361
IPC-298 = tested on: IPC-298
IST-MEL1 = tested on: IST-MEL1
LB2518-MEL = tested on: LB2518-MEL
LOXIMVI = tested on: LOXIMVI
MEL-HO = tested on: MEL-HO
C32 = tested on: C32

Structure (SMILES) | cleaved PARP positive nuclei fraction (501Mel) [%] | cleaved PARP positive nuclei fraction (A101D) [%] | cleaved PARP positive nuclei fraction (A2058) [%] | cleaved PARP positive nuclei fraction (A375) [%] | cleaved PARP positive nuclei fraction (CBRC008) [%] | cleaved PARP positive nuclei fraction (CBRC014) [%] | cleaved PARP positive nuclei fraction (CBRC016) [%] | cleaved PARP positive nuclei fraction (CBRC017) [%] | cleaved PARP positive nuclei fraction (CBRC034) [%] | cleaved PARP positive nuclei fraction (COLO792) [%] | cleaved PARP positive nuclei fraction (COLO800) [%] | cleaved PARP positive nuclei fraction (COLO829) [%] | cleaved PARP positive nuclei fraction (G361) [%] | cleaved PARP positive nuclei fraction (IPC-298) [%] | cleaved PARP positive nuclei fraction (IST-MEL1) [%] | cleaved PARP positive nuclei fraction (LB2518-MEL) [%] | cleaved PARP positive nuclei fraction (LOXIMVI) [%] | cleaved PARP positive nuclei fraction (MEL-HO) [%] | cleaved PARP positive nuclei fraction (C32) [%]
CC(=O)O[C@@]12CO[C@@H]1C[C@H](O)[C@@]1(C)C(=O)[C@H](O)C3=C(C)[C@@H](OC(=O)[C@H](O)[C@@H](NC(=O)OC(C)(C)C)c4ccccc4)C[C@@](O)([C@@H](OC(=O)c4ccccc4)[C@H]21)C3(C)C [Docetaxel] + CS(=O)(=O)CCNCc1ccc(-c2ccc3ncnc(Nc4ccc(OCc5cccc(F)c5)c(Cl)c4)c3c2)o1 [lapatinib] (first compound 0.0001 µM, partner dose 0.8 µM) | 209 | 59.8 | 2850 | 3500 | 351 | 296 | 292 | 159 | 119 | 541 | 616 | 211 | 564 | 318 | 111 | 447 | 112 | 176 | –
CC1(C)CCC(c2ccc(Cl)cc2)=C(CN2CCN(c3ccc(C(=O)NS(=O)(=O)c4ccc(N[C@H](CCN5CCOCC5)CSc5ccccc5)c(S(=O)(=O)C(F)(F)F)c4)cc3)CC2)C1 + CN(c1ncccc1CNc1nc(Nc2ccc3c(c2)CC(=O)N3)ncc1C(F)(F)F)S(C)(=O)=O [PF562271] (first compound 0.4 µM, partner dose 0.08 µM) | 76.7 | 173 | 93.2 | 594 | 340 | 716 | 299 | 305 | 298 | 662 | 256 | 82.4 | 194 | 171 | 56.5 | 347 | 205 | 170 | 1080
NC(=O)c1ccc(N(C(N)=O)c2c(F)cccc2F)nc1-c1ccc(F)cc1F + CCCS(=O)(=O)Nc1ccc(F)c(C(=O)c2c[nH]c3ncc(Cl)cc23)c1F [PLX4720] (first compound 0.4 µM, partner dose 0.08 µM) | 54.8 | 146 | 144 | 207 | 35.1 | 105 | 60.4 | 122 | 58.3 | 121 | 96.1 | 95.1 | 120 | 92.3 | 90 | 101 | 116 | 181 | 78.8
NC1(c2ccc(-c3nc4ccn5c(=O)[nH]nc5c4cc3-c3ccccc3)cc2)CCC1 + Nc1cccc2c1CN(C1CCC(=O)NC1=O)C2=O [lenalidomide] (first compound 0.4 µM, partner dose 1 µM) | 68.4 | 188 | 172 | 95.4 | 114 | 79.3 | 42.4 | 95.1 | 104 | 59.9 | 21.2 | 90.4 | 140 | 79.1 | 188 | 202 | 156 | 44.8 | 83.8
Cn1cnc2c(F)c(Nc3ccc(Br)cc3Cl)c(C(=O)NOCCO)cc21 [selumetinib] + COCC[n+]1c2c(n(Cc3cnccn3)c1C)C(=O)c1ccccc1C2=O [YM155] (first compound 0.015 µM, partner dose 0.0004 µM) | 550 | 47.9 | 106 | 159 | 117 | 89.1 | 235 | 127 | 153 | 88.4 | 79 | 29.4 | 168 | 115 | 217 | 341 | 24.9 | 58.8 | 88.5
CC1(C)CCC(c2ccc(Cl)cc2)=C(CN2CCN(c3ccc(C(=O)NS(=O)(=O)c4ccc(N[C@H](CCN5CCOCC5)CSc5ccccc5)c(S(=O)(=O)C(F)(F)F)c4)cc3)CC2)C1 + CC(=O)O[C@@]12CO[C@@H]1C[C@H](O)[C@@]1(C)C(=O)[C@H](O)C3=C(C)[C@@H](OC(=O)[C@H](O)[C@@H](NC(=O)OC(C)(C)C)c4ccccc4)C[C@@](O)([C@@H](OC(=O)c4ccccc4)[C@H]21)C3(C)C [Docetaxel] (first compound 0.4 µM, partner dose 0.0001 µM) | 815 | 541 | 4670 | 7100 | 1250 | 812 | 773 | 709 | 183 | 2020 | 70.8 | 301 | 958 | 495 | 119 | 277 | 223 | 271 | 256
CCCCCCCCc1ccc(CCC(N)(CO)CO)cc1 [fingolimod] + O=C(O)c1ccc2c(c1)nc(Nc1cccc(Cl)c1)c1ccncc12 [CX4945] (first compound 2 µM, partner dose 0.4 µM) | 281 | 146 | 99.9 | 323 | 74.4 | 93.9 | 63 | 140 | 37.3 | 104 | 26.3 | 123 | 69 | 27.4 | 37.9 | 46.5 | 60.3 | 37.2 | 84.5
CN(c1ncccc1CNc1nc(Nc2ccc3c(c2)CC(=O)N3)ncc1C(F)(F)F)S(C)(=O)=O + C#Cc1cccc(Nc2ncnc3cc(OCCOC)c(OCCOC)cc23)c1 [erlotinib] (first compound 0.08 µM, partner dose 0.8 µM) | 82 | 67.1 | 182 | 281 | 148 | 99.8 | 60.6 | 128 | 36.5 | 128 | 39.3 | 121 | 116 | 93.1 | 139 | 56.1 | 119 | 106 | 82.1
CCN(CC)CCNC(=O)c1c(C)[nH]c(/C=C2\C(=O)Nc3ccc(F)cc32)c1C [sunitinib] + CN1CCN(c2ccc3nc(-c4c(N)c5c(F)cccc5[nH]c4=O)[nH]c3c2)CC1 [Dovitinib] (first compound 0.4 µM, partner dose 0.1 µM) | 186 | 113 | 112 | 156 | 60.4 | 99.9 | 110 | 127 | 155 | 63.5 | 81.7 | 153 | 117 | 101 | 31.2 | 128 | 91.8 | 72.4 | 90
CS(=O)(=O)c1ccc(C(=O)Nc2ccc(Cl)c(-c3ccccn3)c2)c(Cl)c1 [vismodegib] + CCN(CC)CCNC(=O)c1c(C)[nH]c(/C=C2\C(=O)Nc3ccc(F)cc32)c1C [sunitinib] (first compound 1 µM, partner dose 0.4 µM) | 70.4 | 56.4 | 83.5 | 147 | 74.6 | 117 | – | 200 | 32.6 | 33.3 | 119 | 112 | 85.3 | 140 | 91.3 | 93.9 | 38.2 | 107 | 90.5
CC(=O)O[C@@]12CO[C@@H]1C[C@H](O)[C@@]1(C)C(=O)[C@H](O)C3=C(C)[C@@H](OC(=O)[C@H](O)[C@@H](NC(=O)OC(C)(C)C)c4ccccc4)C[C@@](O)([C@@H](OC(=O)c4ccccc4)[C@H]21)C3(C)C [Docetaxel] + CN(c1ncccc1CNc1nc(Nc2ccc3c(c2)CC(=O)N3)ncc1C(F)(F)F)S(C)(=O)=O [PF562271] (first compound 0.0001 µM, partner dose 0.08 µM) | 293 | 224 | 2380 | 4690 | 170 | 176 | 280 | 186 | 84.1 | 549 | 530 | 412 | 1020 | 198 | 108 | 72.8 | 185 | 50.6 | 147
Cn1sc(=O)n(Cc2ccccc2)c1=O + Cn1nnc2c(C(N)=O)ncn2c1=O [temozolomide] (first compound 0.4 µM, partner dose 2 µM) | 60.3 | 267 | 92.3 | 126 | 49.4 | 103 | 114 | 80.3 | 66.9 | 85.6 | 53.9 | 82.8 | 80.7 | 160 | 64.7 | 105 | 47.2 | 148 | 72.1
NC(=O)c1ccc(N(C(N)=O)c2c(F)cccc2F)nc1-c1ccc(F)cc1F + Nc1cccc2c1CN(C1CCC(=O)NC1=O)C2=O [lenalidomide] (first compound 0.4 µM, partner dose 1 µM) | 98.4 | 177 | 118 | 62.7 | 33.7 | 86.3 | 38.9 | 81.5 | 101 | 57.1 | 47.7 | 191 | 60.9 | 43.5 | 64.8 | 106 | 65.5 | 130 | 85.2
CC1(C)CCC(c2ccc(Cl)cc2)=C(CN2CCN(c3ccc(C(=O)NS(=O)(=O)c4ccc(N[C@H](CCN5CCOCC5)CSc5ccccc5)c(S(=O)(=O)C(F)(F)F)c4)cc3)CC2)C1 + Cc1ccc(Nc2nccc(N(C)c3ccc4c(C)n(C)nc4c3)n2)cc1S(N)(=O)=O [Pazopanib] (first compound 0.4 µM, partner dose 0.4 µM) | 82 | 378 | 157 | 525 | 384 | 1130 | 596 | 244 | 106 | 597 | 129 | 78 | 252 | 87.1 | 87.9 | 263 | 227 | 1190 | 139
Cn1cnc2c(F)c(Nc3ccc(Br)cc3Cl)c(C(=O)NOCCO)cc21 [selumetinib] + C[C@]1(O)C[C@@H](c2nc(-c3ccc4ccc(-c5ccccc5)nc4c3)c3c(N)nccn32)C1 [OSI906] (first compound 0.015 µM, partner dose 0.4 µM) | 2550 | 118 | 105 | 620 | 48 | 111 | 73.6 | 134 | 335 | 122 | 98.9 | 109 | 170 | 126 | 107 | 225 | 30.4 | 44.2 | 79.6
CS(=O)(=O)c1ccc(C(=O)Nc2ccc(Cl)c(-c3ccccn3)c2)c(Cl)c1 [vismodegib] + c1cc(-c2cnn3cc(-c4ccc(OCCN5CCCCC5)cc4)cnc23)ccn1 [Dorsomorphin] (first compound 1 µM, partner dose 0.4 µM) | 84 | 44.3 | 41 | – | 76.4 | 109 | 73.6 | 89.6 | – | 58.7 | 59.6 | 148 | 198 | 95.6 | 91.7 | 66.3 | 109 | – | 56.3
CN(c1ncccc1CNc1nc(Nc2ccc3c(c2)CC(=O)N3)ncc1C(F)(F)F)S(C)(=O)=O + Cc1nc(Nc2ncc(C(=O)Nc3c(C)cccc3Cl)s2)cc(N2CCN(CCO)CC2)n1 [dasatanib] (first compound 0.08 µM, partner dose 0.004 µM) | 162 | 121 | 261 | 248 | 25.9 | 116 | 192 | 111 | 279 | 179 | 36.1 | 176 | 88.2 | 44.7 | 134 | 105 | 133 | 121 | 82.4

Already shown: an excerpt of the list.
Structure (SMILES) | cleaved PARP positive nuclei fraction (501Mel) [%] | cleaved PARP positive nuclei fraction (A101D) [%] | cleaved PARP positive nuclei fraction (A2058) [%] | cleaved PARP positive nuclei fraction (A375) [%] | cleaved PARP positive nuclei fraction (CBRC008) [%] | cleaved PARP positive nuclei fraction (CBRC014) [%] | cleaved PARP positive nuclei fraction (CBRC016) [%] | cleaved PARP positive nuclei fraction (CBRC017) [%] | cleaved PARP positive nuclei fraction (CBRC034) [%] | cleaved PARP positive nuclei fraction (COLO792) [%] | cleaved PARP positive nuclei fraction (COLO800) [%] | cleaved PARP positive nuclei fraction (COLO829) [%] | cleaved PARP positive nuclei fraction (G361) [%] | cleaved PARP positive nuclei fraction (IPC-298) [%] | cleaved PARP positive nuclei fraction (IST-MEL1) [%] | cleaved PARP positive nuclei fraction (LB2518-MEL) [%] | cleaved PARP positive nuclei fraction (LOXIMVI) [%] | cleaved PARP positive nuclei fraction (MEL-HO) [%] | cleaved PARP positive nuclei fraction (C32) [%]
NC(=O)c1ccc(N(C(N)=O)c2c(F)cccc2F)nc1-c1ccc(F)cc1F + Nc1cccc2c1CN(C1CCC(=O)NC1=O)C2=O [lenalidomide] (first compound 0.4 µM, partner dose 1 µM) | 98.4 | 177 | 118 | 62.7 | 33.7 | 86.3 | 38.9 | 81.5 | 101 | 57.1 | 47.7 | 191 | 60.9 | 43.5 | 64.8 | 106 | 65.5 | 130 | 85.2
CC1(C)CCC(c2ccc(Cl)cc2)=C(CN2CCN(c3ccc(C(=O)NS(=O)(=O)c4ccc(N[C@H](CCN5CCOCC5)CSc5ccccc5)c(S(=O)(=O)C(F)(F)F)c4)cc3)CC2)C1 + Cc1ccc(Nc2nccc(N(C)c3ccc4c(C)n(C)nc4c3)n2)cc1S(N)(=O)=O [Pazopanib] (first compound 0.4 µM, partner dose 0.4 µM) | 82 | 378 | 157 | 525 | 384 | 1130 | 596 | 244 | 106 | 597 | 129 | 78 | 252 | 87.1 | 87.9 | 263 | 227 | 1190 | 139
